Test results: PubChem BioAssay AID651640 (Broad Institute, 2012)
Where “and” joins values, the source holds several entries; their conditions need not be identical. Equal entries are not always repeated. Out of some 350,000 compounds screened, about 6,000 (1.7%) were called active. This list was built around the results that the source calls inconclusive (neither active nor inactive); the mix of calls is not that of the screen. Rule as the data show it: active = CPE inhibition above about 20% (passing the limit was not always enough); inconclusive = no clear call, values can overlap the other calls; tested in BHK-21 cells. More than one record can exist for a structure, and the calls need not agree.

assay: protection of cells from dengue 2 killing – plate reader, single concentration, primary screen (AID 651640); conditions: DENV2-infected cells, cytopathic effect rescue, at 9.99 µM, stronger effect = higher value;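 also: 0% = median of neutral control wells and 100% = median of positive control wells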

SMILES | CPE inhibition
CC(C)n1c(NCCO)nc2ccccc21 | inconclusive: 23.1%
CCOc1ccc(C(=O)/C=C/c2cn(CN3CCN(C)CC3)c3ccccc23)cc1 | inconclusive: 26.3%
COc1ccc(NC(=O)N(C)C[C@@H]2Oc3ncc(C#Cc4ccccc4)cc3C(=O)N([C@H](C)CO)C[C@@H]2C)cc1 | inconclusive: 38.4%
CC1C(=O)N(Cc2cn(Cc3ccco3)nn2)CCS(=O)(=O)N1Cc1ccc(-c2ccccc2C(F)(F)F)cc1 (centres undefined) | active: 65.4%
O=S(=O)(NC[C@@H]1[C@@H](c2ccccc2)[C@H](CO)N1CC1CC1)c1ccccc1 | inactive: 14.4%
COc1ccc(NC(=O)Nc2ccc3c(c2)C(=O)N([C@@H](C)CO)C[C@@H](C)[C@H](CN(C)C(=O)Nc2cccc4ccccc24)OCCCC[C@H](C)O3)cc1 | inactive: 1.27%
CCOC(=O)C1(CCOc2ccccc2)CCN(Cc2cnc(C)[nH]2)CC1 | inconclusive: 21.2%
CCCCCCN1CCN(C2CN(Cc3cn(Cc4ccc(C(F)(F)F)cc4)nn3)S(=O)(=O)C2)CC1 (centres undefined) | inconclusive: 51.7%
Cc1cc(C)n(-c2nc(SCCN3CCOCC3)c3c4c(sc3n2)CCCC4)n1 | inconclusive: 23.7%
CC(Sc1nc(-c2ccccc2)cs1)C(=O)Nc1ccc(Cl)cn1 (centres undefined) | inconclusive: 59.3%
Cc1ccccc1-n1cnc2c(sc3nc(N4CCOCC4)c4c(c32)CCCC4)c1=O | active: 42%
O=C(Nc1ccc(F)cc1)N[C@H]1CC[C@H](CCNS(=O)(=O)c2cccc(Cl)c2)O[C@H]1CO | inactive: 11.7%
CCn1nc(C)c(/C=C/C(=O)Nc2ccc(C)cc2C)c1C | active: 88.8%
C[C@@H]1CCCCO[C@@H](CN(C)S(=O)(=O)c2ccc(Cl)cc2)[C@@H](C)CN([C@@H](C)CO)C(=O)c2cc(NC(=O)c3ccncc3)ccc2O1 | inconclusive: 61%
COc1ccccc1Cn1c(=S)[nH]c2cc(C(=O)N3CC(C)CC(C)C3)ccc2c1=O (centres undefined) | active: 22.1%
COc1ccc(NC(=O)C2Cc3c(-c4cccc(C(C)=O)c4)ccnc3O2)cc1OC (centres undefined) | inconclusive: 52.1%
CC1(c2ccccc2Cl)NC(=O)N(CC(=O)N2CCc3ccccc3C2)C1=O (centres undefined) | inconclusive: 57.4%
Cc1cc(C)n2c(Nc3ccc4c(c3)OCCO4)c(CC(C)C)nc2n1 | active: 46%
C[C@H](NC(=O)C[C@H]1CC[C@H]2[C@@H](COc3ccc(NS(=O)(=O)c4ccc(Cl)cc4)cc3C(=O)N2C)O1)c1ccccc1 | inconclusive: 49.2%
Cc1cc2nc3c(=O)[nH]c(=O)nc-3n(C[C@H](O)[C@H](O)[C@H](O)CO)c2cc1C | inconclusive: 21.4%
O=[N+]([O-])c1ccccc1N/N=C1\CC2CC=CC12 (centres undefined) | active: 30.4%
COc1ccc(NC(=O)N(C)C[C@H]2OCCCC[C@H](C)Oc3ccc(NS(=O)(=O)c4cn(C)cn4)cc3C(=O)N([C@H](C)CO)C[C@@H]2C)cc1 | inactive: -10.8% and active: 25.2%

SMILES | CPE inhibition
CC(C)CNC(=O)C1Nc2ccccc2C2C=CCC12 (centres undefined) | active: 63.2%
C[C@H]1CN([C@@H](C)CO)S(=O)(=O)c2ccc(-c3ccc(C#N)cc3)cc2O[C@@H]1CN(C)Cc1cccc(F)c1 | inactive: -0.19%
CN1[C@@H]2c3ccc(/C=C/c4ccccc4)c(=O)n3C[C@@H]2[C@@H](CO)[C@@H]1C(=O)NC1CCC1 | inactive: 19%
O=C(NCC1CCCO1)c1ccc(S(=O)(=O)Nc2ccccc2F)cc1 (centres undefined) | active: 101%
C=CCCC1CN(Cc2ccc(OC)cc2)S(=O)(=O)c2c(Oc3ccc(C(C)C)cc3)cccc2O1 (centres undefined) | inconclusive: 40.4%
COc1ccc(S(=O)(=O)N2C[C@H](O)COC[C@@H]3O[C@@H](CC(=O)NCCN4CCCCC4)CC[C@H]32)cc1 | inactive: 1.52%
Cc1ccc(S(=O)(=O)Nc2ccc3c(c2)CC(=O)N([C@@H](C)CO)C[C@H](C)[C@@H](CN(C)CC2CC2)O3)cc1 | inconclusive: 42.9%
CC1(C(=O)NS(=O)(=O)c2ccccc2)CCN1C(=O)Cc1cccs1 (centres undefined) | inconclusive: 27.6%
CC(=O)N1[C@@H]2Cn3c(ccc(-c4ccccc4F)c3=O)[C@H]1[C@@H](C(=O)NC1CCC1)[C@@H]2CO | inconclusive: 21.3%
Cc1noc(C)c1NC(=O)N(C)C[C@@H]1OCCCC[C@H](C)Oc2ccc(NC(=O)NC3CCCCC3)cc2C(=O)N([C@@H](C)CO)C[C@H]1C | active: 43.9%
CC(OC(=O)c1cccc(-n2cnnn2)c1)C(=O)Nc1ccc(F)c(F)c1F (centres undefined) | inconclusive: 31.7%
C[C@H]1CN([C@@H](C)CO)C(=O)Cc2cc(NC(=O)CCN3CCOCC3)ccc2O[C@H]1CN(C)Cc1ccc2c(c1)OCO2 | inactive: 4.77%
COc1cccc(NC(=S)NC(Cc2ccccc2)c2ccccc2)c1 (centres undefined) | inconclusive: 46.2%
CC(C)NC(=O)N(C)C[C@H]1Oc2ncc(C#CCc3ccccc3)cc2C(=O)N([C@H](C)CO)C[C@@H]1C | inactive: 13.5%
C[C@@H]1CCCCO[C@H](CN(C)Cc2ccncc2)[C@@H](C)CN([C@@H](C)CO)C(=O)c2cc(NC(=O)c3ccccc3)ccc2O1 | inactive: -7.44%
COc1ccc2c(c1)C(c1ccccc1)=NNC(c1ccco1)=N2 | inactive: 2.66%
O=C(Cc1ccccc1)N1C[C@H]2[C@@H](c3ccccc31)[C@H](CO)N2C(=O)Nc1ccc(F)cc1 | inactive: -9.53%
C[C@H]1CN([C@@H](C)CO)C(=O)c2cc(NS(=O)(=O)c3ccc(F)cc3)ccc2O[C@H]1CN(C)CC1CCCCC1 | inactive: -3.81%
O=C(CCN1C(=O)/C(=C\c2cccs2)SC1=S)NC1=NCCS1 | inactive: -3.09%
CCc1ccc(OCC(O)CN2CCCC2)cc1 (centres undefined) | inconclusive: 20.3%
CC[C@H](C)[C@@H](C(=O)NCCCCCCCCCCC(=O)N1CCNCC1)n1cc(CCCCN=C(N)N)nn1 | inconclusive: 65%
COc1ccc(CN(C)C[C@@H]2Oc3ccc(NC(=O)C4CCCCC4)cc3C(=O)N([C@@H](C)CO)C[C@@H]2C)cc1 | active: 37.6%

Structures listed so far containing a CF3 group (two):
SMILES | CPE inhibition
CC1C(=O)N(Cc2cn(Cc3ccco3)nn2)CCS(=O)(=O)N1Cc1ccc(-c2ccccc2C(F)(F)F)cc1 (centres undefined) | active: 65.4%
CCCCCCN1CCN(C2CN(Cc3cn(Cc4ccc(C(F)(F)F)cc4)nn3)S(=O)(=O)C2)CC1 (centres undefined) | inconclusive: 51.7%
